# Assay results as given in PubChem BioAssay AID602313 (National Center for Advancing Translational Sciences (NCATS), 2012).
# The campaign covered roughly 390,000 compounds. About 760 (0.19%) were called active. This list was built around the results that the source calls inconclusive (neither active nor inactive); the mix of calls is not that of the screen. The call rests on the fitted dose curve; in most records, active means well fitted inhibition curve with a large enough effect; inconclusive means small, poorly fitted or top-dose-only effect; inactive means flat fitted curve, though single readings scatter. A potency beside an inconclusive call is a rough fit, not a confirmed value.
# Assay: qHTS for Inhibitors of Vif-A3F Interactions: qHTS; further: nearly all actives have a fitted effect of over 65% in size
# Settings: HeLa A3F-eYFP + Vif (tagged APOBEC3F with the HIV-1 protein that degrades it), YFP fluorescence increase; series mostly up to 46.1 µM
# Method in brief: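 HeLa cells stably expressing A3F-eYFP plus Vif, plated and incubated overnight at 37 deg C, then exposed to compounds overnight at 37 deg C. Blocked degradation read as raised yellow fluorescence (Ex 488/Em 500-530).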
# Potency means the concentration at half of the fitted maximal effect.
row,SMILES,Potency
1,C/C(=N\Nc1nc2ccccc2s1)c1ccc2c(c1)OCO2,"inconclusive: 25.1 µM [inhibitor, single point]"
2,c1cc(SC2CCCCC2)cc(-c2nc3cnccn3c2NC2CCCCC2)c1,active: 25.1 µM
3,Cc1cccc(Cl)c1OCCCn1ccnc1,inactive
4,Cc1ccc(C2NC(=S)N3C(c4ccc(C)cc4)NC(=S)N23)cc1 (stereo unspecified),inactive
5,O=C(Cn1c2ccccc2c(=O)c2ccccc21)N/N=C/c1cc([N+](=O)[O-])ccc1N1CCCCC1,"inconclusive: 1.78 µM [inhibitor, partial curve, poor fit]"
6,CCOc1cc(C(Nc2cc(C)ccn2)c2ccc3cccnc3c2O)ccc1OC (stereo unspecified),"inconclusive: 35.5 µM [inhibitor, single point]"
7,O=C(CSc1nc2c([nH]c3ccccc32)c(=O)n1-c1ccc(Cl)cc1)NC1CCCCC1,"inconclusive: 3.16 µM [inhibitor, single point]"
8,CC(C)OCCCn1c(-c2ccc(Br)cc2)c[nH]c1=S,"inconclusive: 15.8 µM [inhibitor, single point]"
9,COc1ccc(/C=N/Nc2cc(C)nc3ccc(OC)cc23)c(OC)c1,"inconclusive: 3.16 µM [inhibitor, single point]"
10,O=C(CCc1nc2ccccc2c(=O)[nH]1)Nc1nc(-c2cccs2)cs1,"inconclusive: 35.5 µM [inhibitor, single point]"
11,O=C(COc1ccccc1Cl)NC(=S)Nc1ccccc1N1CCCC1,inactive
12,CN(C)CCSc1nnc2sc3ccccc3n12,inactive
13,CC(C)N(C(=O)[C@H]1CC(CC(=O)NCc2cccc(C(F)(F)F)c2)C(=O)N2CCc3c([nH]c4ccccc34)[C@]12C)C(C)C (stereo partly specified),"inconclusive: 35.5 µM [inhibitor, single point]"
14,COc1ccc(C)cc1S(=O)(=O)N(C)CC(=O)N1CCC(C(N)=O)CC1,"inconclusive: 35.5 µM [inhibitor, single point]"
15,O=C(CCN1C(=O)C2CCCCC2C1=O)Nc1nc2c(F)cc(F)cc2s1 (stereo unspecified),"inconclusive: 11.2 µM [inhibitor, partial curve, poor fit]"
16,CC(Nc1ccc(Cl)cc1)C(=O)NN (stereo unspecified),"inconclusive: 0.562 µM [inhibitor, full curve, poor fit]"
17,CCOC(=O)c1c(NC(=O)c2ccc(S(=O)(=O)N(CC(C)C)CC(C)C)cc2)sc2c1CCN(CC)C2,"inconclusive: 20 µM [inhibitor, partial curve, poor fit]"
18,CCOC(=O)c1c(CSc2ccccc2)oc2ccc(O)cc12,inactive
19,S=C(NCc1ccc2c(c1)OCO2)NCc1ccc2c(c1)OCO2,"inconclusive: 6.31 µM [inhibitor, single point]"
20,CC(=O)Nc1ccc(S(=O)(=O)NCc2nc(-c3cccc(C)c3)no2)cc1,"inconclusive: 14.1 µM [inhibitor, partial curve, poor fit]"
21,CC(C)(C)c1ccc(OCC(=O)N/N=C/c2cc(Br)ccc2OC(=O)c2ccco2)cc1,"inconclusive: 14.1 µM [inhibitor, partial curve, poor fit]"
22,COc1ccc(C(=O)Nc2c(O)ccc3ccccc23)cc1OC,inactive

# By substructure: the compounds so far containing fluorine (2)
row,SMILES,Potency
13,CC(C)N(C(=O)[C@H]1CC(CC(=O)NCc2cccc(C(F)(F)F)c2)C(=O)N2CCc3c([nH]c4ccccc34)[C@]12C)C(C)C (stereo partly specified),"inconclusive: 35.5 µM [inhibitor, single point]"
15,O=C(CCN1C(=O)C2CCCCC2C1=O)Nc1nc2c(F)cc(F)cc2s1 (stereo unspecified),"inconclusive: 11.2 µM [inhibitor, partial curve, poor fit]"

# Following part:

row,SMILES,Potency
1,CCN(CC)c1ccc(N2C(=O)/C(=C/c3cccs3)SC2=S)cc1,inactive
2,Cc1ccc(NC(=O)CSc2nnc(-c3ccco3)n2N)cc1F,"inconclusive: 35.5 µM [inhibitor, single point]"
3,Cc1c(O)c2c3c(cccc3c1O)C(=O)N(c1ccccc1)C2=O,"inconclusive: 22.4 µM [inhibitor, partial curve, poor fit]"
4,Cn1c(Cn2c(=O)sc3ccccc32)nnc1SCC(=O)NC1CCCC1,inactive
5,COc1ccc(OC)c(NC(=O)NNC(=O)COc2ccc([N+](=O)[O-])cc2)c1,"inconclusive: 2.82 µM [inhibitor, partial curve, poor fit]"
6,Cc1cc(C)cc(NC(=O)c2ccc3c(c2)CCN3S(C)(=O)=O)c1,inactive
7,O=C(COC(=O)/C=C/c1ccc(F)cc1)Nc1nnc(-c2ccccc2)o1,"inconclusive: 35.5 µM [inhibitor, single point]"
8,Cc1ccc2c(c1)C1CN(C)CCC1N2C(=S)NC(=O)c1ccc(Cl)cc1Cl (stereo unspecified),"inconclusive: 7.08 µM [inhibitor, partial curve, poor fit]"
9,NC(=O)CC(NC(=O)Cc1cccc2ccccc12)c1ccc(NCCc2cccc(F)c2)c([N+](=O)[O-])c1 (stereo unspecified),"inconclusive: 35.5 µM [inhibitor, single point]"
10,Cc1c(C#N)c(O)n(CCO)c(=O)c1N=Nc1ccc2c(c1)COC2=O,"inconclusive: 20 µM [inhibitor, partial curve, poor fit]"
11,CCCCn1c(NC(=O)c2ccccc2Cl)c(C#N)c2nc3ccccc3nc21,"inconclusive: 31.6 µM [inhibitor, single point]"
12,O=C1NCCN1C(=O)C12CC3CC(CC(C3)C1)C2,inactive
13,Cn1nnc(NC(=S)NC(=O)c2cccc3c(Cl)cccc23)n1,"inconclusive: 3.98 µM [inhibitor, single point]"
14,CCOC(=O)C1=C(N)c2ccccc2CC1C1CCCC1 (stereo unspecified),"inconclusive: 17.8 µM [inhibitor, single point]"
15,CCN1CCc2nc3sc(C(=O)Nc4ccccc4OC(F)(F)F)c(N)c3cc2C1,"inconclusive: 22.4 µM [inhibitor, single point]"
16,COc1ccccc1Cn1c(=S)[nH]c2ccc(F)cc2c1=O,"inconclusive: 12.6 µM [inhibitor, single point]"
17,O=C(NCCOc1ccc(Cl)cc1)c1ccc2ccccc2n1,"inconclusive: 35.5 µM [inhibitor, single point]"
18,O=C(Nc1ncccc1O)c1ccc(S(=O)(=O)Nc2ccccc2)cc1,"inconclusive: 15.8 µM [inhibitor, partial curve, poor fit]"
19,O=[N+]([O-])c1cccnc1NCCc1c[nH]c2ccccc12,"inconclusive: 12.6 µM [inhibitor, single point]"
20,Cc1ccnc(Nc2nc3ccccc3o2)n1,"inconclusive: 25.1 µM [inhibitor, single point]"
21,CSc1nsc2nc(=O)c(/C=C3\C(C)=Nc4ccccc43)c(N)n12,"inconclusive: 0.562 µM [inhibitor, partial curve, poor fit]"
22,COc1ccc(/C=C(\C#N)c2nc3ccc(C)cc3[nH]2)cc1Oc1ccc(C(F)(F)F)cc1[N+](=O)[O-],"inconclusive: 20 µM [inhibitor, partial curve, poor fit]"

row,SMILES,Potency
1,O=Cc1sc(Nc2ccccc2)nc1Cl,active: 25.1 µM
2,Fc1cccc(NC(=S)NCCc2ccccc2)c1,"inconclusive: 6.31 µM [inhibitor, single point]"
3,N#CC(=Nc1ccccc1)c1ccccc1,"inconclusive: 35.5 µM [inhibitor, single point]"
4,CCOC(=O)c1c(S(=O)(=O)NCC(=O)Nc2ccc(C(C)=O)cc2)c(C)n(C)c1C,"inconclusive: 12.6 µM [inhibitor, partial curve, poor fit]"
5,C/C(=N\NC(=S)NC(C)C)c1ccccc1OC(F)F,"inconclusive: 5.62 µM [inhibitor, single point]"
6,Cc1cc(C)c(C(=O)Nc2ccc(Br)c(C(F)(F)F)c2)c(C)c1,inactive
7,CCN(CC)c1ccc(C(=C2C=CC(=[N+](CC)CC)C=C2)c2ccc(N(CC)CC)cc2)cc1,"inconclusive: 5.62 µM [inhibitor, single point]"
8,CC(C)OC(=O)c1ccc(NCc2cc(O)ccc2O)cc1,"inconclusive: 15.8 µM [inhibitor, partial curve, poor fit]"
9,O=C(Nc1ccc2oc(-c3ccccc3)nc2c1)c1cc(-n2cnnc2)ccc1Cl,"inconclusive: 35.5 µM [inhibitor, single point]"
10,CC(=O)c1sc2nc(-c3ccc(C)cc3)c3c(c2c1N)CCCC3,"inconclusive: 35.5 µM [inhibitor, single point]"
11,O=C(CCC1COc2ccccc2O1)Nc1ccc(Cl)cn1 (stereo unspecified),"inconclusive: 22.4 µM [inhibitor, partial curve, poor fit]"
12,CCCCNC(=S)N/N=C/c1cc(C)ccc1C,inactive
13,O=C1C2C3C=CC(O3)C2C(=O)N1Nc1ccccc1 (stereo unspecified),"inconclusive: 8.91 µM [inhibitor, partial curve, poor fit]"
14,O=C(CCSc1ccccc1)N1CCN(c2ccccc2F)CC1,"inconclusive: 35.5 µM [inhibitor, single point]"
15,Cn1c(O)c(/C=N/NC(=O)c2cc3ccccc3cc2O)c2ccccc21,"inconclusive: 35.5 µM [inhibitor, single point]"
16,CCOc1ccc(CNC(=O)c2cc3cc(S(=O)(=O)N4CCCCC4)ccc3n2C)cc1,inactive
17,Cc1cc(C)cc(C(=O)NC(=S)Nc2cccnc2)c1,"inconclusive: 12.6 µM [inhibitor, partial curve, poor fit]"
18,CCCOc1ccc(/C=C2/C(=O)ON=C2C)cc1Cl,"inconclusive: 35.5 µM [inhibitor, single point]"
19,Oc1ccc(NCc2ccccc2OCc2ccccc2)cc1,inactive
20,CC(C)(C)c1cc(Br)c(O)c(N=Nc2ccc(S(=O)(=O)N3CCOCC3)cc2)c1,"inconclusive: 2 µM [inhibitor, full curve, poor fit]"
21,CCOC(=O)c1c(CSc2ccccc2)n(C)c2cc(Br)c(O)c(CN(C)C)c12,inactive
22,CCCn1cnc2scc(-c3ccc(C)c(C)c3)c2c1=O,"inconclusive: 22.4 µM [inhibitor, single point]"

# For reference, two of the compounds above.
row,SMILES,Potency
20,CC(C)(C)c1cc(Br)c(O)c(N=Nc2ccc(S(=O)(=O)N3CCOCC3)cc2)c1,"inconclusive: 2 µM [inhibitor, full curve, poor fit]"
21,CCOC(=O)c1c(CSc2ccccc2)n(C)c2cc(Br)c(O)c(CN(C)C)c12,inactive
